System: DLBCL cells
Test: Pearson 2-tailed correlation of antiproliferative activity of lenalidomide with baseline markers in DLBCL cells
Method: The correlation between the antiproliferative effect on DLBCL cells of lenalidomide at 1 μM, a clinical achievable concentration, and baseline NFκB p50 activity was determined by Pearson 2-tailed correlation analysis method. A significant (p<0.001) correlation was observed between antiproliferative activity of lenalidomide in these DLBCL cell lines and baseline levels of activity of NFκB, particularly the p50 subunit.

## Nc1cccc2c1CN(C1CCC(=O)NC1=O)C2=O (stereo not shown) [lenalidomide, 3-(4-amino-1-oxo-1,3-dihydro-isoindol-2-yl)-piperidine-2,6-dione]
Oncomine ABC scores
  Correlation with antiproliferative activity of 1 mM lenalidomide: Correlated
Oncomine NFkB Scores
  Correlation with antiproliferative activity of 1 mM lenalidomide: Correlated
Baseline A20 gene expression
  Correlation with antiproliferative activity of 1 mM lenalidomide: Not Correlated
Baseline CARD11 gene expression
  Correlation with antiproliferative activity of 1 mM lenalidomide: Correlated
Baseline IRF4 gene expression
  Correlation with antiproliferative activity of 1 mM lenalidomide: Correlated
Baseline SPIB gene expression
  Correlation with antiproliferative activity of 1 mM lenalidomide: Not Correlated
Baseline activity of NFkB subunit p50
  Correlation with antiproliferative activity of 1 mM lenalidomide: Correlated
Baseline activity of NFkB subunit p65
  Correlation with antiproliferative activity of 1 mM lenalidomide: Correlated
Baseline cyclin D1 gene expression
  Correlation with antiproliferative activity of 1 mM lenalidomide: Not Correlated
Baseline cyclin D3 gene expression
  Correlation with antiproliferative activity of 1 mM lenalidomide: Not Correlated

— patent US20110223157A1, “METHODS FOR THE TREATMENT OF NON-HODGKIN'S LYMPHOMAS USING LENALIDOMIDE, AND GENE AND PROTEIN BIOMARKERS AS A PREDICTOR” (priority 2010, published 2011)
